Read-outs that look alike come from different tables or passages of the source. No constants are given. Whether binding was seen depends on the method and setting. In cells and extracts the contact can be indirect. A yes stands for co-enrichment or nearness to the bait. Other partners may have been found.
B1: Annexin A1 (protein, UniProt P04083 1-346)
chain: MAMVSEFLKQAWFIENEEQEYVQTVKSSKGGPGSAVSPYPTFNPSSDVAALHKAIMVKGVDEATIIDILTKRNNAQRQQIKAAYLQETGKPLDETLKKALTGHLEEVVLALLKTPAQFDADELRAAMKGLGTDEDTLIEILASRTNKEIRDINRVYREELKRDLAKDITSDTSGDFRNALLSLAKGDRSEDFGVNEDLADSDARALYEAGERRKGTDVNVFNTILTTRSYPQLRRVFQKYTKYSKHDMNKVLDLELKGDIEKCLTAIVKCATSKPAFFAEKLHQAMKGVGTRHKALIRIMVSRSEIDMNDIKAFYQKMYGISLCQAILDETKGDYEKILVALCGGN

By UniProt entry, the sequences of proteins in these tests, tags left out. Where a name states a change or a piece, a line headed by the entry shows the natural chain unless it says otherwise.
UniProt P21980: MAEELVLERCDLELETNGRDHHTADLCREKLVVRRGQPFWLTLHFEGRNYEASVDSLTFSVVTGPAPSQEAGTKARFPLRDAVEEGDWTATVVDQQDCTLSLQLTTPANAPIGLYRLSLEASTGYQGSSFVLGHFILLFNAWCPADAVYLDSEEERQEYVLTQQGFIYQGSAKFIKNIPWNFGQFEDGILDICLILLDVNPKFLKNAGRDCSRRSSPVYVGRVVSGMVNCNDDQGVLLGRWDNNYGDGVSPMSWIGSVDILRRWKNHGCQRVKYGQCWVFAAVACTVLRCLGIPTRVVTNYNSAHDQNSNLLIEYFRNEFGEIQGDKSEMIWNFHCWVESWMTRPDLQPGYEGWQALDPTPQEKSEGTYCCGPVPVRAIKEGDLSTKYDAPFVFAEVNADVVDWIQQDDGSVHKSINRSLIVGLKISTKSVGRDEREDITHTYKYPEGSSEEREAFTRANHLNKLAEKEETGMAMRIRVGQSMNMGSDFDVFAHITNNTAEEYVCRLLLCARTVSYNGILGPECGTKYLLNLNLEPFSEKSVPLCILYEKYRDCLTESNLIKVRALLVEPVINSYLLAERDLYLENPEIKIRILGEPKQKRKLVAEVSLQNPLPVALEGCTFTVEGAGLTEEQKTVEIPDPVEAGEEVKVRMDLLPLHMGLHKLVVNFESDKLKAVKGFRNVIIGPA
UniProt P61586: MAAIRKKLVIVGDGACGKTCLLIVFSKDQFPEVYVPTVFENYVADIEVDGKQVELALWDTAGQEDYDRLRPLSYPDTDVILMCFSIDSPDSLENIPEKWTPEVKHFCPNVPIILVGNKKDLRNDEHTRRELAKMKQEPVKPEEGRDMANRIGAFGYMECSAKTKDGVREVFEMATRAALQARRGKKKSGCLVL
UniProt P11413: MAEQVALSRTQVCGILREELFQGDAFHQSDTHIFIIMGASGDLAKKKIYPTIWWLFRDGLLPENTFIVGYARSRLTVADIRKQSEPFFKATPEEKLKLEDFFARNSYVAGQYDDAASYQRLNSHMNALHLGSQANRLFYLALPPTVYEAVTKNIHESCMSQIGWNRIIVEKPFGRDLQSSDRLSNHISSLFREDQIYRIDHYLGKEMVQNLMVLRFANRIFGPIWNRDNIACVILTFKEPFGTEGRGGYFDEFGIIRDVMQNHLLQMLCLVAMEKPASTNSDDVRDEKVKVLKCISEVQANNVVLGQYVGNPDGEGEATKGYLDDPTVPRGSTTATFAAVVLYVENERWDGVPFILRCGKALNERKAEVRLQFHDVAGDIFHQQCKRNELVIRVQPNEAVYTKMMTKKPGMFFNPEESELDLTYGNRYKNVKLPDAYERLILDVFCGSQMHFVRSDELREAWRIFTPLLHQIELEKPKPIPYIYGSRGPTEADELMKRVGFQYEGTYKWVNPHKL
UniProt P21333: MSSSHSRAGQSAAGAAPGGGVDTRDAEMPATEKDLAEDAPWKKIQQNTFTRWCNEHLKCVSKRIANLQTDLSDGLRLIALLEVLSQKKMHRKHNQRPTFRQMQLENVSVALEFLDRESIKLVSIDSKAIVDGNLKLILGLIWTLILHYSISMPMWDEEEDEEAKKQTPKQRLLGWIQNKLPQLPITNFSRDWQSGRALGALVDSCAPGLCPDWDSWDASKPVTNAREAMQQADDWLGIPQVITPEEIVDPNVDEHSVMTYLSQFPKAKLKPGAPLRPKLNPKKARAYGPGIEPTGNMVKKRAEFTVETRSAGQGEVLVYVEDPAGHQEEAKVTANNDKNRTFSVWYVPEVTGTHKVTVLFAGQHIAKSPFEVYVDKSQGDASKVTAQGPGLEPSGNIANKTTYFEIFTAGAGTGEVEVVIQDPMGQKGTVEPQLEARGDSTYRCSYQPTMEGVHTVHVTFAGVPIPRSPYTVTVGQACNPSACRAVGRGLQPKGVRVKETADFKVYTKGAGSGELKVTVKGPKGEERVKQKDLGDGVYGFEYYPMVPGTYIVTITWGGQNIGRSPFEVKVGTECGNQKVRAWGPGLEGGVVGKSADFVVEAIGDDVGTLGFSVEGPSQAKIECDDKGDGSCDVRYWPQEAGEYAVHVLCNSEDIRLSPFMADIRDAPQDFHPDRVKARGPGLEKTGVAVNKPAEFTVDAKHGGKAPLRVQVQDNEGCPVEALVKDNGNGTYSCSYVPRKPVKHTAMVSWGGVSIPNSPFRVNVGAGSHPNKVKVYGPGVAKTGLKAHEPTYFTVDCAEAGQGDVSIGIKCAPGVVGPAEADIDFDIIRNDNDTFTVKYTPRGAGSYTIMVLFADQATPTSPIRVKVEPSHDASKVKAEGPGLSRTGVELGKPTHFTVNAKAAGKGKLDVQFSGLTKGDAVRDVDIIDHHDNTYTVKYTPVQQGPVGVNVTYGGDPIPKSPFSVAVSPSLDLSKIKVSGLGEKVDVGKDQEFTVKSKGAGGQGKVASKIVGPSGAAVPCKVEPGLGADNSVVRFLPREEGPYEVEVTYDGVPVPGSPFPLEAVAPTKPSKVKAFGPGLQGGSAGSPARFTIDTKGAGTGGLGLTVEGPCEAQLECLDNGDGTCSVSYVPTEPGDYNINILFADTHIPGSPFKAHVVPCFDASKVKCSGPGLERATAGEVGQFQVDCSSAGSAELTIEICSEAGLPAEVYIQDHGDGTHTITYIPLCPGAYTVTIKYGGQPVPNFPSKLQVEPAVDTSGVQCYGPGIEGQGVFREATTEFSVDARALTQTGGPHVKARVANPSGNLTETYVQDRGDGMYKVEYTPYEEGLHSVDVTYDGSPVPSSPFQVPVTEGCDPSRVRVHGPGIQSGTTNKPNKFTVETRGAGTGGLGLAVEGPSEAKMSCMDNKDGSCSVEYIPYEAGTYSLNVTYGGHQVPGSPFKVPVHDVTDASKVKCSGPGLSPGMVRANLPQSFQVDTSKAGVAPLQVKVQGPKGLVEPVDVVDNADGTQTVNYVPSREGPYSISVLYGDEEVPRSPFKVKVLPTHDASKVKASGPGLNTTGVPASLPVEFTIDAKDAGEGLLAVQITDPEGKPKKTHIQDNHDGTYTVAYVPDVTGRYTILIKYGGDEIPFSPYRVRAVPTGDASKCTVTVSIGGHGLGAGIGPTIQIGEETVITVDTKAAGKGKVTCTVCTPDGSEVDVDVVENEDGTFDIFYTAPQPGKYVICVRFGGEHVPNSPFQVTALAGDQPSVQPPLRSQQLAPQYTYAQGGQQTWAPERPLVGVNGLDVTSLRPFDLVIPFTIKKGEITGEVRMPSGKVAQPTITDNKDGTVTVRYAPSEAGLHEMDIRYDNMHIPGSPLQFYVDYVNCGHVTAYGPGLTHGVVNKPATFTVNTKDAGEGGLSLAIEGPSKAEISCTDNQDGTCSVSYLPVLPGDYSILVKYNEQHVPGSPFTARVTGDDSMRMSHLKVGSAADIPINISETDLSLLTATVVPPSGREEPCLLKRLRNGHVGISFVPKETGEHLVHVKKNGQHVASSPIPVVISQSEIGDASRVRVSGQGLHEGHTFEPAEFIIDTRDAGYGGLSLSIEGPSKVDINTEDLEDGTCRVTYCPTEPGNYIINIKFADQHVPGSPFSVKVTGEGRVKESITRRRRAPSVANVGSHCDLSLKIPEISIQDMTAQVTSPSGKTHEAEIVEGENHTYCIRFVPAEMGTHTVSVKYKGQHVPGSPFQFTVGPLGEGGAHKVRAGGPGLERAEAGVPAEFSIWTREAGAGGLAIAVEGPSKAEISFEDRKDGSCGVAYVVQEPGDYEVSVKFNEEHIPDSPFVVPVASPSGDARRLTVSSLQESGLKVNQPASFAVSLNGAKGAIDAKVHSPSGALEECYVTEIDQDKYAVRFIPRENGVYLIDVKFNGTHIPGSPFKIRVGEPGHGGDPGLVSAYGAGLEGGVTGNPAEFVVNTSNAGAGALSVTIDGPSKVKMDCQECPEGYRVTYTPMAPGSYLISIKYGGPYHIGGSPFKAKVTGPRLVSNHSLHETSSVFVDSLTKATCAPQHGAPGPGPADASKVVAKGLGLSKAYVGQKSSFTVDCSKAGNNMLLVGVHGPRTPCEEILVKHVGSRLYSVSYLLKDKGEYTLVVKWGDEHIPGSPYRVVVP

Tests used:
[1] = molecular target: Transglutaminase 2 (human (endogenous in HMC)) (UniProt P21980); test: affinity purification with mass spectrometry; IP of TGase2 from the cytosol fraction of HMC (with or without pIgA1 10 ug/mL, 48 h) with rabbit anti-TGase2 antibody cross-linked to protein A/G magnetic beads, overnight at 4°C; rabbit IgG as negative control; HPLC-MS/MS
[2] = molecular target: Transglutaminase 2 (human (endogenous in HMC)) (UniProt P21980); test: as above; remark: listed apart in the source

Row | Molecule | binding [1] | binding [2]
1 | Ras homolog family member A (from UniProt P61586 1-193) | binds | –
2 | Glucose-6-phosphate 1-dehydrogenase (from UniProt P11413 1-515) (enzyme) | binds | –
3 | Filamin-A (from UniProt P21333 1-2647) | binds | –
4 | B1 | – | binds

— article PMC10619437
